Experimental data as given in publication doi:10.1101/2021.04.21.440798.

Protein sequences, listed by entry. Tags and fused reporters are not part of them. Residues count along the entry.
UniProt P46379: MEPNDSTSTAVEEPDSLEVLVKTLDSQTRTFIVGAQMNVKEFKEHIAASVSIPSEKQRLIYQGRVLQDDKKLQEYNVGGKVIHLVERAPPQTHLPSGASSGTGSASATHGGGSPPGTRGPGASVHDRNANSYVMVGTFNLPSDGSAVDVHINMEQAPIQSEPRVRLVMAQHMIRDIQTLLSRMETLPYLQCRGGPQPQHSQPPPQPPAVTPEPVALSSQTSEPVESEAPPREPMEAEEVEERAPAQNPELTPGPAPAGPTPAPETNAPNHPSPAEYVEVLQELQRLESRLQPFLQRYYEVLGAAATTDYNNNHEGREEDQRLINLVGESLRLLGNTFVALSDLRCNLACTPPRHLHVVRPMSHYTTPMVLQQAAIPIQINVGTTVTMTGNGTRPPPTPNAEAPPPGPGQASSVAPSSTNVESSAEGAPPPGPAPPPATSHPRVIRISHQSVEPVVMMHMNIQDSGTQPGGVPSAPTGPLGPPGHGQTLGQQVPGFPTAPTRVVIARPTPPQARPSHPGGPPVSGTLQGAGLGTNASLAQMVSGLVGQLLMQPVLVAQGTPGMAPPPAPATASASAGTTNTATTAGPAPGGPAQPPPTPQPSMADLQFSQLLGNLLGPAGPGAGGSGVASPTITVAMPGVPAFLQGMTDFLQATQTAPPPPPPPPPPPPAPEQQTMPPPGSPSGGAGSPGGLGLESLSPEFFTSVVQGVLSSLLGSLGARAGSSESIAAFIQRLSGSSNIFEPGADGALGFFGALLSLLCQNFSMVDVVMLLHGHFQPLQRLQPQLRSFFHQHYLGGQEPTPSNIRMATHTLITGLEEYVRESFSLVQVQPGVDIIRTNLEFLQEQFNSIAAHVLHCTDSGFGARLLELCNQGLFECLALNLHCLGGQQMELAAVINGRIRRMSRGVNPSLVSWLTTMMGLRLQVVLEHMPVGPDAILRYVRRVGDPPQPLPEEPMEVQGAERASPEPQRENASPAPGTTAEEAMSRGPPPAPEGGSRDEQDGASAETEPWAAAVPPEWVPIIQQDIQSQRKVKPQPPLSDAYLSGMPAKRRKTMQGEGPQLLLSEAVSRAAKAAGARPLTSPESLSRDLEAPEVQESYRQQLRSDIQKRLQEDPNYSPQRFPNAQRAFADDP
UniProt P53618: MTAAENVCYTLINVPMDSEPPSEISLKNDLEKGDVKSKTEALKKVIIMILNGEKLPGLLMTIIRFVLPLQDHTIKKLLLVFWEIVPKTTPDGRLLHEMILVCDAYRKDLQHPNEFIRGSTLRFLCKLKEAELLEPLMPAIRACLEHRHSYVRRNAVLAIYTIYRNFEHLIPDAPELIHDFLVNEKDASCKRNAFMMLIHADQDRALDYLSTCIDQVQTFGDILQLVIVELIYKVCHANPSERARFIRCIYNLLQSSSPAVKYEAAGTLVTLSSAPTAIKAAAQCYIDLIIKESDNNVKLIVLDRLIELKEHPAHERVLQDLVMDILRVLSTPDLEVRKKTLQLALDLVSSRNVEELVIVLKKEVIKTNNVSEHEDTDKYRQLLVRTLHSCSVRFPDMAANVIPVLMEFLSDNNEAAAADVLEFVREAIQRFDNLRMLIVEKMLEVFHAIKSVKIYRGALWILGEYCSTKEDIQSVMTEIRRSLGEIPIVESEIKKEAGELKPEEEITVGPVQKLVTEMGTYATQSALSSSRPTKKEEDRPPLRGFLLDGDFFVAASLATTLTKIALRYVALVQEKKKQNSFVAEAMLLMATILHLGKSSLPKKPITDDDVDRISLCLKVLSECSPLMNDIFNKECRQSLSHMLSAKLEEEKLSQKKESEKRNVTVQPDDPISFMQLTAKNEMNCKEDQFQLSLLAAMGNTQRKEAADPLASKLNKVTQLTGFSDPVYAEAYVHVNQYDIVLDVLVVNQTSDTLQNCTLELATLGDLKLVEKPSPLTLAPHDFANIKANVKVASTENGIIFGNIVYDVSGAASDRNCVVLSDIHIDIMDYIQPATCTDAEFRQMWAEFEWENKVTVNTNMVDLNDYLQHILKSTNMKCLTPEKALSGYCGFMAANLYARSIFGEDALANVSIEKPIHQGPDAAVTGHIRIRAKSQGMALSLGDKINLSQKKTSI
UniProt Q9UHD2: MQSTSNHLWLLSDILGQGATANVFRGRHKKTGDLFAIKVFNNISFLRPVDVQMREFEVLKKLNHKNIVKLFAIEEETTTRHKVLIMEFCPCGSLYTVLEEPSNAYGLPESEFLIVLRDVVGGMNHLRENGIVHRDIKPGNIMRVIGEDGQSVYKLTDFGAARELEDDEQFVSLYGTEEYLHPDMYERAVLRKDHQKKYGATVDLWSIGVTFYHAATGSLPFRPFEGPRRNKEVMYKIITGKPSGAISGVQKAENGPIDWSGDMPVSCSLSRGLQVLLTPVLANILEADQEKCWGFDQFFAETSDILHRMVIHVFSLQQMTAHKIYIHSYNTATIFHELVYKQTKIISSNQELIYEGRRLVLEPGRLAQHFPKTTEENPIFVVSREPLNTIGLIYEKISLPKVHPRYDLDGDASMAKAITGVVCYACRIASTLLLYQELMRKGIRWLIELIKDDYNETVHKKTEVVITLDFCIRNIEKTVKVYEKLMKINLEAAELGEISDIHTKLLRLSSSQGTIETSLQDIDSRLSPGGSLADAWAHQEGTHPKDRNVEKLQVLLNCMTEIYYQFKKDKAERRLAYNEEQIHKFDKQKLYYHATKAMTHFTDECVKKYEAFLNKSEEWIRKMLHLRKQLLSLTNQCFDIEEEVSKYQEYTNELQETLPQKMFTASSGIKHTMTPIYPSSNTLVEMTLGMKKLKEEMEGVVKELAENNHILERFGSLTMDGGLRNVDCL
UniProt Q93050: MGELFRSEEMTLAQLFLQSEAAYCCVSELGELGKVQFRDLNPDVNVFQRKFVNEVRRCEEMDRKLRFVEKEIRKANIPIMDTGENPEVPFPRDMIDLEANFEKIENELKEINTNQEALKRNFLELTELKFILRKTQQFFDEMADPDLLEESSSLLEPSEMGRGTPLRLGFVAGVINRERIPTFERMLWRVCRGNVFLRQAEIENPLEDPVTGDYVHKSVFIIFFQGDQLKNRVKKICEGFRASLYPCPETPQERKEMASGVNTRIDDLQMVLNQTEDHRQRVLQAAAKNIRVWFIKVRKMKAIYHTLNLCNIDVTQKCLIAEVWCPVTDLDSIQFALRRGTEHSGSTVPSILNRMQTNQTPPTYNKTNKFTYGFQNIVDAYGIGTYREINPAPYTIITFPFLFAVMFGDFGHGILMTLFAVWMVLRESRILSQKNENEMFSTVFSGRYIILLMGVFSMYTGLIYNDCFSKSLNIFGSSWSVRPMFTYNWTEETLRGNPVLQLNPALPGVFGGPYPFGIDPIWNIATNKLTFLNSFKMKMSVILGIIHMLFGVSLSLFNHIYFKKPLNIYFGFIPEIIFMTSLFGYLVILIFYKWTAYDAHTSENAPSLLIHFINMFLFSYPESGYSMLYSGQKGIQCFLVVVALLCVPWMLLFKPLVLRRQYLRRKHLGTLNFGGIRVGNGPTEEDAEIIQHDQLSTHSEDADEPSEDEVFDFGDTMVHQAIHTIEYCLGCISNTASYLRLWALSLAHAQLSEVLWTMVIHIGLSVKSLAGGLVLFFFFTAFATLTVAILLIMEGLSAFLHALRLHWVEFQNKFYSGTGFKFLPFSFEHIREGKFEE
UniProt P27824, residues 21-592: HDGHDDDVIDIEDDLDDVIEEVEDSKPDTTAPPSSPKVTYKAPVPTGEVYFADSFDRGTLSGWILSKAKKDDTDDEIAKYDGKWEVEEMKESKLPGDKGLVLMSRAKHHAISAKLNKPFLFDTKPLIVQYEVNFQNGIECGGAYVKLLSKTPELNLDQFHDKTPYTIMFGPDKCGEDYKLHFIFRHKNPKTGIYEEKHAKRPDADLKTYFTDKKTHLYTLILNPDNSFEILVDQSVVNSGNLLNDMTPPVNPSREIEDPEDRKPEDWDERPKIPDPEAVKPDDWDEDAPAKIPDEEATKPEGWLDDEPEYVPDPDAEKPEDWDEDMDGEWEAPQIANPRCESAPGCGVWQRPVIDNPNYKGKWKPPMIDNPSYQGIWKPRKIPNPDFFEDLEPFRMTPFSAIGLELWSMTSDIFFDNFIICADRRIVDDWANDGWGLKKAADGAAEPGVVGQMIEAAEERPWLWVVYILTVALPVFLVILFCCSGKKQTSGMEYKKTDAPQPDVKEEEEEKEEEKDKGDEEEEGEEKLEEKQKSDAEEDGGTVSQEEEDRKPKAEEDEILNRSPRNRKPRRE
UniProt Q8IWV7: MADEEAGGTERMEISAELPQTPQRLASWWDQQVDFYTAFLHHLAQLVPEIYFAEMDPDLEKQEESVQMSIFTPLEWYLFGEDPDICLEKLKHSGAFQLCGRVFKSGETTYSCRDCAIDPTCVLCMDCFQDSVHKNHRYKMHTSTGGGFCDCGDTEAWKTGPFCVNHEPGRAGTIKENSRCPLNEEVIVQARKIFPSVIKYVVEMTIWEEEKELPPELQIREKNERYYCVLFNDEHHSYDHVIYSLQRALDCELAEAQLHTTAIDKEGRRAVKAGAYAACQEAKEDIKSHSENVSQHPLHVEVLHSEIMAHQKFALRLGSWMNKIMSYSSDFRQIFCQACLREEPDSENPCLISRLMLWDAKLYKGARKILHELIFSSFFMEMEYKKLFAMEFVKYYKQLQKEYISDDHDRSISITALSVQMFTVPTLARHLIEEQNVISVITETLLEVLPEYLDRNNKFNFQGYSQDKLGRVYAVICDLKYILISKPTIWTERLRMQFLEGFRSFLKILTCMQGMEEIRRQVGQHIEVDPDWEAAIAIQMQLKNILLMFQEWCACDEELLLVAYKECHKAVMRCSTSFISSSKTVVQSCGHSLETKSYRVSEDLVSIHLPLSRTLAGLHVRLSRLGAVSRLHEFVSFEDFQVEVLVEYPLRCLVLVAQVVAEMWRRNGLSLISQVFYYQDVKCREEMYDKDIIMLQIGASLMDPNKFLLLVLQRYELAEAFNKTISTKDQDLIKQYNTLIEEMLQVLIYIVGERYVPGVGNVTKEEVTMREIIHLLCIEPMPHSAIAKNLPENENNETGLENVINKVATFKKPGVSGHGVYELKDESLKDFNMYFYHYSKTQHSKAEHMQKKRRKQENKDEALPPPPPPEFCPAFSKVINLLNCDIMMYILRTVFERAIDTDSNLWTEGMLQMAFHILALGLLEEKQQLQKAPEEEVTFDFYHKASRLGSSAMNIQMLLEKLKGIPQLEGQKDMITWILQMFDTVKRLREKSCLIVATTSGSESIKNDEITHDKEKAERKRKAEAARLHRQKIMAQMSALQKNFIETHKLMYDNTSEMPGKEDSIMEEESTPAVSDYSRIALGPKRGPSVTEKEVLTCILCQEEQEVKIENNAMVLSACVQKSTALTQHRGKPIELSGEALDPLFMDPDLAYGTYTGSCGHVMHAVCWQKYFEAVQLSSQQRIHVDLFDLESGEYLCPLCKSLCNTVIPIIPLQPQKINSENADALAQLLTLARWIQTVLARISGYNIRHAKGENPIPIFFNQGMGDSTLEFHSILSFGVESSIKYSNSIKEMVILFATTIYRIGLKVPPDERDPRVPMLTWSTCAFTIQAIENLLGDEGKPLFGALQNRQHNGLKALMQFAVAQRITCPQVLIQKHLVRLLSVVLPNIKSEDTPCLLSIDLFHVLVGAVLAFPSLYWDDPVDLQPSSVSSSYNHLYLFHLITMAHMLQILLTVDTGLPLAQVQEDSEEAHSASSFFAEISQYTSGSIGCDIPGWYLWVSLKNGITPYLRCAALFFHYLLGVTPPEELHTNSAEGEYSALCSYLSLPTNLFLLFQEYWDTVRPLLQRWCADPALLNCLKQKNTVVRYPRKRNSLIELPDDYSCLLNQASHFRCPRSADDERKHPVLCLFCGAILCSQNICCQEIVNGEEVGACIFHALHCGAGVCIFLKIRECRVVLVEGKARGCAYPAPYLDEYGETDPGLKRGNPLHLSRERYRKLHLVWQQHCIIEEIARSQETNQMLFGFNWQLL

Target: GFP-T6BP (TAX1BP1 / TRAF6-Binding Protein fused to GFP) (UniProt Q86VP1)
Assay: affinity purification with mass spectrometry

| Substance | binding |
| --- | --- |
| BAG6 (from UniProt P46379 1-1132) | binds |
| COPB1 (from UniProt P53618 1-953) | binds |
| kinase TBK1 (TANK-binding kinase-1) (from UniProt Q9UHD2 1-729) | binds |

Second part, the substance after the results:

| binding | Substance |
| --- | --- |
| binds | ATP6V0A1, a subunit of the vATPase (from UniProt Q93050 1-837) |
| binds | Calnexin (CANX), endogenous (from UniProt P27824 21-592) |
| binds | E3 Ub-ligase UBR1 (from UniProt Q8IWV7 1-1749) |
| binds | E3 Ub-ligase UBR2 (from UniProt Q8IWV8 1-1755) |
| binds | Sequestosome-1 / p62 (SQSTM1) (from UniProt Q13501 1-440) |

Results are given in words; binding and its absence hold for the method and conditions named. In cells and extracts the contact can be indirect. Here binding means that the protein was enriched with, or labelled near, the bait; the list need not be complete.
